In patent US6673570:

Key:
[1] = molecular target: 6xMyc-Smad4; assay: co-immunoprecipitation from transfected COS7 cells, with and without ALK5ca
[2] = molecular target: 6xMyc-Smad2; assay: as above
[3] = molecular target: 6xMyc-Smad3; assay: as above
[4] = molecular target: 6xMyc-Smad7; assay: as above
[5] = molecular target: 6xMyc-Smad6S; assay: as above
[6] = molecular target: 6xMyc-Smad6L; assay: as above
[7] = molecular target: 6xMyc-Smad4; assay: co-immunoprecipitation from transfected COS7 cells (Flag IP, Myc blot), with and without ALK6ca
[8] = molecular target: 6xMyc-Smad7; assay: as above
[9] = molecular target: 6xMyc-Smad6S; assay: as above
[10] = molecular target: 6xMyc-Smad6L; assay: as above

binding [1]: binds
binding [2]: binds
binding [3]: binds
binding [4]: binds
binding [5]: binds
binding [6]: binds
binding [7]: binds
binding [8]: binds
binding [9]: binds
binding [10]: binds
B1: Flag-tagged AMSH (SAP1/AMSH) (protein, not shown: small tags and cut ends)
chain: MSDHGDVSLPPEDRVRALSQLGSAVEVNEDIPPRRYFRSGVEIIRMASIYSEEGNIEHAFILYNKYITLFIEKLPKHRDYKSAVIPEKKDTVKKLKEIAFPKAEELKAELLKRYTKEYTEYNEEKKKEAEELARNMAIQQELEKEKQRVAQQKQQQLEQEQFHAFEEMIRNQELEKERLKIVQEFGKVDPGLGGPLVPDLEKPSLDVFPTLTVSSIQPSDCHTTVRPAKPPVVDRSLKPGALSNSESIPTIDGLRHVVVPGRLCPQFLQLASANTARGVETCGILCGKLMRNEFTITHVLIPKQSAGSDYCNTENEEELFLIQDQQGLITLGWIHTHPTQTAFLSSVDLHTHCSYQMMLPESVAIVCSPKFQETGFFKLTDHGLEEISSCRQKGFHPHSKDPPLFCSCSHVTVVDRAVTITDLR

These are yes or no findings as the source states them, for the method shown. In cells and extracts the contact can be indirect. Binding calls can cover weak binding; strength is not graded here. Sequences can lack the tags named with a protein.
